Data published in the supplement of paper PMC4604168 (melanoma cell lines).
Some of the results follow. Single values are uncertain, as repeats are few or missing.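 Cells were imaged in 1,536-well plates, and nuclei stained with an antibody against cleaved PARP were counted against all DNA-stained nuclei to give the apoptosis fraction. Screening doses were chosen to leave most cells alive, and resting and induced cleaved-PARP levels differ strongly between cell lines.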

What follows are compounds tested on CBRC014 (line from a melanoma biopsy) (assay: cleaved PARP positive nuclei fraction relative to DMSO control; melanoma cells; higher = more apoptosis). Conditions: library dose: low library concentration; 72 h.
In the case of `N.N.[Cl][Pt][Cl]` [cisplatin] + Cn1nnc2c(C(N)=O)ncn2c1=O [temozolomide] (first compound 1.6 µM, partner dose 2 µM), the “cleaved PARP positive nuclei fraction” value is reported as 112%. In the case of `Cn1cc(C2=C(c3cn(C4CCN(Cc5ccccn5)CC4)c4ccccc34)C(=O)NC2=O)c2ccccc21` [Enzastaurin] + C=CCNC1=C2C[C@@H](C)C[C@H](OC)[C@H](O)[C@@H](C)/C=C(\C)[C@H](OC(N)=O)[C@@H](OC)/C=C\C=C(/C)C(=O)NC(=CC1=O)C2=O [Tanespimycin] (first compound 0.8 µM, partner dose 0.002 µM), the “cleaved PARP positive nuclei fraction” value is reported as 139%. For `CS(=O)(=O)c1ccc(C(=O)Nc2ccc(Cl)c(-c3ccccn3)c2)c(Cl)c1` [vismodegib] + C[As](C)SC[C@H](NC(=O)CC[C@H](N)C(=O)O)C(=O)NCC(=O)O [Darinaparsin] (first compound 1 µM, partner dose 0.4 µM), the “cleaved PARP positive nuclei fraction” value was 83.8%. For `CS(=O)(=O)c1ccc(C(=O)Nc2ccc(Cl)c(-c3ccccn3)c2)c(Cl)c1` [vismodegib] + N.N.[Cl][Pt][Cl] [cisplatin] (first compound 1 µM, partner dose 1.6 µM), the “cleaved PARP positive nuclei fraction” value was 88.3%. For `CCCS(=O)(=O)Nc1ccc(F)c(C(=O)c2c[nH]c3ncc(Cl)cc23)c1F` + C[As](C)SC[C@H](NC(=O)CC[C@H](N)C(=O)O)C(=O)NCC(=O)O [Darinaparsin] (first compound 0.08 µM, partner dose 0.4 µM), the “cleaved PARP positive nuclei fraction” value was 188%. `C[C@]12O[C@H](C[C@]1(O)CO)n1c3ccccc3c3c4c(c5c6ccccc6n2c5c31)CNC4=O` [Lestaurtinib] + C=CCNC1=C2C[C@@H](C)C[C@H](OC)[C@H](O)[C@@H](C)/C=C(\C)[C@H](OC(N)=O)[C@@H](OC)/C=C\C=C(/C)C(=O)NC(=CC1=O)C2=O [Tanespimycin] (first compound 0.004 µM, partner dose 0.002 µM) was tested, and the “cleaved PARP positive nuclei fraction” value was 78.3%. `C[C@]12O[C@H](C[C@]1(O)CO)n1c3ccccc3c3c4c(c5c6ccccc6n2c5c31)CNC4=O` [Lestaurtinib] + O=C(O)[C@@H]1[O][Sb](=[O])([O][Sb]2(=[O])[O][C@H]([C@H](O)CO)[C@H](O)[C@H](C(=O)O)[O]2)[O][C@H]([C@H](O)CO)[C@@H]1O [stibogluconate] (first compound 0.004 µM, partner dose 2 µM) was tested, and the “cleaved PARP positive nuclei fraction” value was 105%. For `Cn1cc(C2=C(c3cn(C4CCN(Cc5ccccn5)CC4)c4ccccc34)C(=O)NC2=O)c2ccccc21` [Enzastaurin] + C=C(c1ccc(C(=O)O)cc1)c1cc2c(cc1C)C(C)(C)CCC2(C)C [Bexarotene] (first compound 0.8 µM, partner dose 2 µM), the “cleaved PARP positive nuclei fraction” value was 83.1%.
